From publication PMC4152239
These are yes or no findings as the source states them, for the method shown. Binding seen in cells or lysates may run through a third protein. Some binding calls cover weakened binding; strength is not graded here. Each block holds one substance with its values, some of them ahead of it.

Amino acid sequences for entries named in this document (tags omitted). Residues count along the entry.
UniProt O08852, residues 24-4293: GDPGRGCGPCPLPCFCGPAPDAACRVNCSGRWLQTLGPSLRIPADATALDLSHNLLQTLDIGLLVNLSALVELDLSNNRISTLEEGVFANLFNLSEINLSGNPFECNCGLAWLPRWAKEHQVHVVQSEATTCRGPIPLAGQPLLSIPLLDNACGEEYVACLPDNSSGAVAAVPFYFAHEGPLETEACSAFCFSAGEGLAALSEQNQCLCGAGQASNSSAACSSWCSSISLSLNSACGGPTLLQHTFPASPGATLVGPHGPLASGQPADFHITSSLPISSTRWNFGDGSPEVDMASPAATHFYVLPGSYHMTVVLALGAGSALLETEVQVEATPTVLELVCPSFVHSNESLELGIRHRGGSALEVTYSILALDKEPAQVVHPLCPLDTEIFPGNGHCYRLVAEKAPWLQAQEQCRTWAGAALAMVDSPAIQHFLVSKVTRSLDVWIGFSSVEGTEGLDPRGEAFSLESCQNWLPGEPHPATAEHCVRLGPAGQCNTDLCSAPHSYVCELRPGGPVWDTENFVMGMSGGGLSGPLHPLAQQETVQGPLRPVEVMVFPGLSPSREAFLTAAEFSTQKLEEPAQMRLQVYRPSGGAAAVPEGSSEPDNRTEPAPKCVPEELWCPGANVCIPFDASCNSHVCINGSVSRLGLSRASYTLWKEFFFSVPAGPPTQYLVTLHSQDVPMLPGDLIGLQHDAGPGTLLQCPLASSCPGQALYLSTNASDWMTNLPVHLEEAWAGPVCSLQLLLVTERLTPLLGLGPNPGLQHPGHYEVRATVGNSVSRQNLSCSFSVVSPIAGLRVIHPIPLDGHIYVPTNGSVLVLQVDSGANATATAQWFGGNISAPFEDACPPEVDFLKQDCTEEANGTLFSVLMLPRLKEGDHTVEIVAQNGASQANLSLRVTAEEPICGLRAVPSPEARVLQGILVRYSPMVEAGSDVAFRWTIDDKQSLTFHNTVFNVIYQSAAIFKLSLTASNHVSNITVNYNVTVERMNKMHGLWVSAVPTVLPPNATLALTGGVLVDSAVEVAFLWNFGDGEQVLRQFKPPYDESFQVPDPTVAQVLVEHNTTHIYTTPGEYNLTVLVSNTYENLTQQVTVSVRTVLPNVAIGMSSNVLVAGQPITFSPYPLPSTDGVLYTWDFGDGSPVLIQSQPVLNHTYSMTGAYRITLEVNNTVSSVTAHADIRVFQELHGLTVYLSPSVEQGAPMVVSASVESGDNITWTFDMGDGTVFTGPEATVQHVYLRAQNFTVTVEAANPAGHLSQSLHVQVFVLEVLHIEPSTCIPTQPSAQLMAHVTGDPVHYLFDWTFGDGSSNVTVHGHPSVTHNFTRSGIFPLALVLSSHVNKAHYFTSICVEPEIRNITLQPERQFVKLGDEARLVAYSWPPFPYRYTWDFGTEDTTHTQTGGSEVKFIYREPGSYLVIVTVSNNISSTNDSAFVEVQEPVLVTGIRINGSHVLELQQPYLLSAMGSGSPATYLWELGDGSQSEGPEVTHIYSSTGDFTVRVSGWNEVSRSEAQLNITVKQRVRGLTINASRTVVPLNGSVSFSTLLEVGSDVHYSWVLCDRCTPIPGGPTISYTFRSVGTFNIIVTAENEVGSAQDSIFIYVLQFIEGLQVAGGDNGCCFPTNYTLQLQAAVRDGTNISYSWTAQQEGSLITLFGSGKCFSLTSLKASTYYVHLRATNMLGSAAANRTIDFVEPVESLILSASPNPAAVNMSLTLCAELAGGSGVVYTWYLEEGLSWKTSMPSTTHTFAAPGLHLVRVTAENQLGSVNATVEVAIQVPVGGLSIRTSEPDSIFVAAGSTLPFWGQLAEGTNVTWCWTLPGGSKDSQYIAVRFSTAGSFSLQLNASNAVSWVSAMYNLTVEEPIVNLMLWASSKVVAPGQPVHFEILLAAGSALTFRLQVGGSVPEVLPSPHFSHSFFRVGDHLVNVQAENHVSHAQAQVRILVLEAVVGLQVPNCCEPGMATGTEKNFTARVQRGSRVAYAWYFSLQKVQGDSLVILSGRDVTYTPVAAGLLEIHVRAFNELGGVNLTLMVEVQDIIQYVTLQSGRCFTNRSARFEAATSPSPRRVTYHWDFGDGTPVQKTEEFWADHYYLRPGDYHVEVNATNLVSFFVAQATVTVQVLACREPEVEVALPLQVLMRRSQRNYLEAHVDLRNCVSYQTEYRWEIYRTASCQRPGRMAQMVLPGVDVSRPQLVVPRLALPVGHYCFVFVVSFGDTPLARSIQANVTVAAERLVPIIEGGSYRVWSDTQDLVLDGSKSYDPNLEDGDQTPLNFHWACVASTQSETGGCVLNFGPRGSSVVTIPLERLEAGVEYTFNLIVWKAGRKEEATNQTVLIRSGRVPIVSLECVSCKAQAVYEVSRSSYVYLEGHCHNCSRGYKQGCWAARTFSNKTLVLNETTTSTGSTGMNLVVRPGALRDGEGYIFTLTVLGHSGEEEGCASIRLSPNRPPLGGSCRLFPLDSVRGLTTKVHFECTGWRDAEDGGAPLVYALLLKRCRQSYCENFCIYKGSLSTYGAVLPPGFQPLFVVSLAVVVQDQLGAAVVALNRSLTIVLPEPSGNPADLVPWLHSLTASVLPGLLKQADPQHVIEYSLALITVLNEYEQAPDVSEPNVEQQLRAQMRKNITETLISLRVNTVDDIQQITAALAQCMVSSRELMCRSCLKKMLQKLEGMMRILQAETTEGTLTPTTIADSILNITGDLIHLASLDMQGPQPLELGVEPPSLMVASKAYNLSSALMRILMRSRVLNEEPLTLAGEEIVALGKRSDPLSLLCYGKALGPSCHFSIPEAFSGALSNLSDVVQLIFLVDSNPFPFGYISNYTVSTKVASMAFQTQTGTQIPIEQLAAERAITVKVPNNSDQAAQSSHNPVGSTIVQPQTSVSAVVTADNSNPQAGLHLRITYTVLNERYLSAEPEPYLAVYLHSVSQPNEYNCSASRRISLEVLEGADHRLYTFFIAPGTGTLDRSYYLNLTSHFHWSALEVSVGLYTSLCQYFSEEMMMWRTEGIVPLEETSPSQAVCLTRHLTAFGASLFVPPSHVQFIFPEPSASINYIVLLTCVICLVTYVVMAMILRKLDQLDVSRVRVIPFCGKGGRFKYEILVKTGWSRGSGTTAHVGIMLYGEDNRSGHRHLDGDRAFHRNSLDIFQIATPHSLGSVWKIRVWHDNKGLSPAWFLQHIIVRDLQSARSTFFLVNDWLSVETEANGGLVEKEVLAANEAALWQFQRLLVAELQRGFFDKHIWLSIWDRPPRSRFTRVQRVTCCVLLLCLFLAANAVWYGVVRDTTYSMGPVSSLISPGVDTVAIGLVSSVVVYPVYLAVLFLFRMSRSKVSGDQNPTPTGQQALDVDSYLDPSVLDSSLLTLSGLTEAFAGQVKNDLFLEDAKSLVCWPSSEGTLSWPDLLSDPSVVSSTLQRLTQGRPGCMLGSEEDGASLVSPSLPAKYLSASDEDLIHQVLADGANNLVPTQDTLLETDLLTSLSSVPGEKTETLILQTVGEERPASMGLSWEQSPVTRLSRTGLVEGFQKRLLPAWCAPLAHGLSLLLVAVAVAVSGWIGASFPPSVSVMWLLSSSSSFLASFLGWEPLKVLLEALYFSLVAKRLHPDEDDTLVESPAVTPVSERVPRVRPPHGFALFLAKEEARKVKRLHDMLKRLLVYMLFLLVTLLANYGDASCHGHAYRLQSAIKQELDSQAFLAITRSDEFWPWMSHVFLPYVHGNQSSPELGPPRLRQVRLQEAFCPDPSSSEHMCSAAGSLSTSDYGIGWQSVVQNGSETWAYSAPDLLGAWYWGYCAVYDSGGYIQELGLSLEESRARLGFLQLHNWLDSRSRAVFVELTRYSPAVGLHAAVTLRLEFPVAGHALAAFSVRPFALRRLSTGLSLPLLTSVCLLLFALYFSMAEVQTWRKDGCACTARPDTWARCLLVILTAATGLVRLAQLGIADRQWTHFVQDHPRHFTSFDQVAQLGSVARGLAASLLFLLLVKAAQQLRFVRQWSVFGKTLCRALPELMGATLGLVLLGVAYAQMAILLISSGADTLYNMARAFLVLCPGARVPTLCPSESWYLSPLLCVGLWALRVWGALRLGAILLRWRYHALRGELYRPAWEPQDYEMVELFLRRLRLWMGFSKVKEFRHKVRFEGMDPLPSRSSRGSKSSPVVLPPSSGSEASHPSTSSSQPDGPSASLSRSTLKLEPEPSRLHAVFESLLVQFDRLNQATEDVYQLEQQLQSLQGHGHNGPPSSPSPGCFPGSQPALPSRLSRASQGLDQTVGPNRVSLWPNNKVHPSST

Columns and labels:
[1] = molecular target: epidermal growth factor receptor (human, RCTE cells) (human (endogenous in RCTE)) (UniProt P00533); assay: co-IP; EGFR immunoprecipitated with Santa Cruz pAb from lysates of polarized RCTE or MO6-G3 cells (5 days post-confluency); lysis buffer 0.5% NP40, 10 mM Tris-HCl pH 7.4, 150 mM NaCl, 5 mM EDTA, 60 mM octylglucoside; 4°C; immunoblot; normal rabbit IgG as negative control
[2] = molecular target: polycystin-1 (mouse, MO6-G3 odontoblasts) (mouse (endogenous in MO6-G3)) (UniProt O08852); assay: proximity ligation; Duolink II Rabbit/Mouse Red Kit on polarized RCTE or MO6-G3 cells on coverslips, 5 days post-confluency; antibodies against PC1 (Santa Cruz mAb) and EGFR (GeneTex pAb); control without PC1 antibody negative
[3] = molecular target: polycystin-1 (mouse, MO6-G3 odontoblasts) (mouse (endogenous in MO6-G3)) (UniProt O08852); assay: co-IP; PC1 immunoprecipitated with NM002 pAb from lysates of polarized RCTE or MO6-G3 cells (5 days post-confluency); lysis buffer 0.5% NP40, 10 mM Tris-HCl pH 7.4, 150 mM NaCl, 5 mM EDTA, 60 mM octylglucoside; 4°C; immunoblot; normal rabbit IgG as negative control
[4] = molecular target: epidermal growth factor receptor (mouse, MO6-G3 odontoblasts) (mouse (endogenous in MO6-G3)) (UniProt Q01279); assay: co-IP; EGFR immunoprecipitated with Santa Cruz pAb from lysates of polarized RCTE or MO6-G3 cells (5 days post-confluency); lysis buffer 0.5% NP40, 10 mM Tris-HCl pH 7.4, 150 mM NaCl, 5 mM EDTA, 60 mM octylglucoside; 4°C; immunoblot; normal rabbit IgG as negative control
[5] = molecular target: polycystin-1 (human, RCTE cells) (human (endogenous in RCTE)) (UniProt P98161); assay: proximity ligation; Duolink II Rabbit/Mouse Red Kit on polarized RCTE or MO6-G3 cells on coverslips, 5 days post-confluency; antibodies against PC1 (Santa Cruz mAb) and EGFR (GeneTex pAb); control without PC1 antibody negative
[6] = molecular target: polycystin-1 (human, RCTE cells) (human (endogenous in RCTE)) (UniProt P98161); assay: co-IP; PC1 immunoprecipitated with NM002 pAb from lysates of polarized RCTE or MO6-G3 cells (5 days post-confluency); lysis buffer 0.5% NP40, 10 mM Tris-HCl pH 7.4, 150 mM NaCl, 5 mM EDTA, 60 mM octylglucoside; 4°C; immunoblot; normal rabbit IgG as negative control

binding [1]: binds
Substance: polycystin-1 (human, RCTE cells) (from UniProt P98161 24-4303)

binding [2]: binds | binding [3]: binds
Substance: epidermal growth factor receptor (mouse, MO6-G3 odontoblasts) (from UniProt Q01279 25-1210)

binding [4]: binds
Substance: polycystin-1 (mouse, MO6-G3 odontoblasts) (from UniProt O08852 24-4293)

binding [5]: binds | binding [6]: binds
Substance: epidermal growth factor receptor (human, RCTE cells) (from UniProt P00533 25-1210)
